In patent US20060280737A1 one finds binding data, which are given here for two molecules.

The chains behind the UniProt entries cited, without tags or fusion partners. Where a name states a change or a piece, a line headed by the entry shows the natural chain unless it says otherwise.
UniProt P48357: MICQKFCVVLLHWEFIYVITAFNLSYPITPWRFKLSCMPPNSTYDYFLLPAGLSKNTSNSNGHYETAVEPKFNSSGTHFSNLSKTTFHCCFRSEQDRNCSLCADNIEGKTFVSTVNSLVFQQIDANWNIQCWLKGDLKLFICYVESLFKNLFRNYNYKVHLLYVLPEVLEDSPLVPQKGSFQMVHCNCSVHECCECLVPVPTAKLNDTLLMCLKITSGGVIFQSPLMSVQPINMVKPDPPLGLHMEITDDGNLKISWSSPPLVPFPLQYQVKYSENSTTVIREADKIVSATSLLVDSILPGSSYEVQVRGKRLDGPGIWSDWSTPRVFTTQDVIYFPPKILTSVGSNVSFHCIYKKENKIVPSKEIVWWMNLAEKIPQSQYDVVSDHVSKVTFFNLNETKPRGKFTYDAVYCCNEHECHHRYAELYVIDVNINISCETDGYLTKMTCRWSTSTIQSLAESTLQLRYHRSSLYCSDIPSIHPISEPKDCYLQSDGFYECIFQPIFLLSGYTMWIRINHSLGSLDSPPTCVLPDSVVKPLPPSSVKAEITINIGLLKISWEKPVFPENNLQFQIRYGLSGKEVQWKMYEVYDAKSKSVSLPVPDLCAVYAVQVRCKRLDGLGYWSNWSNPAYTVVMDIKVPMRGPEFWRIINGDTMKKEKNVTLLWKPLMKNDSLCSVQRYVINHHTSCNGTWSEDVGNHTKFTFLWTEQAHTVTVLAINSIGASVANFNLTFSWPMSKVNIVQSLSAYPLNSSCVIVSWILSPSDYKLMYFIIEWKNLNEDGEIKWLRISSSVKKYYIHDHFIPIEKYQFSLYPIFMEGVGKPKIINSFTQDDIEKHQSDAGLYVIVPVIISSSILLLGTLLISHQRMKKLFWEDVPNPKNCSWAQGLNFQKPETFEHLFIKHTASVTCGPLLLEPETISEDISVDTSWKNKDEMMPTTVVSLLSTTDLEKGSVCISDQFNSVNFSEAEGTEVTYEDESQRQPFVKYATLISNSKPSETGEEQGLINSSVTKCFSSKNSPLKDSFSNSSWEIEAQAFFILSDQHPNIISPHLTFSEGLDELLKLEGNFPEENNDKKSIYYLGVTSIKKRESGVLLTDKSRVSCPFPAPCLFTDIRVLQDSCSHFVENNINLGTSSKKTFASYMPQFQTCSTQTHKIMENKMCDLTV

Results are given in words; binding and its absence hold for the method and conditions named. Some binding calls cover weakened binding; strength is not graded here.

For test [1], the target named is human WSX receptor (hWSXR), antigen of the phage ELISA (human) (UniProt P48357). The experiment in a line: antigen-binding phage ELISA; clone #17 is one of the 18 clones.
Test [2] shares this target. Description: antigen-binding phage ELISA; clone #3 is one of the 18 clones.

B1: agonist antibody clone #17 scFv (scFv)
scFv: QVRLQQSGGGLVQPGRSLRLSCAASGFTFDDYAMHWVRQAPGKGLEWVSGMTWNSGSIGYADSVKGRFTISRDNAKNSLYLQMNSLRAEDTAVYYCAREPHNTDAFDIWGRGTLVTVSSGGGGPGGGGSGGGGSDVVMTQSPSFLSAFVGDTITITCRASQGIYNYLAWYQQKPGKAPKLLIYAASTLQSGVPSRFSGSGSGTEFTLTISSLQPEDFGTYYCQQLISYPLTFGGGTKVEIK
As for B1, in test [1], the binding entry is “binds”.

B2: agonist antibody clone #3 scFv (scFv)
scFv: EVQLVQSGAEVKKPGASVKVSCKASGYTFTGYYMYWVRQAPGQGLEWMGWINPNSGGTNYAQKFQGRVTMTRDTSIGTAYMELSRLSSDDTAVYYCARDRYYGSSAYHRGSYYMDVWGRGTLVTVSSGGGGTGGGGSGGGGSSELTQDPAVSVALGQTVRITCQGDSLRSYYASWYQQKPGQAPVLVIYGKNNRPSGIPDRFSGSSSGNTASLTITGAQAEDEADYYCNSRDSSGNHVVFGGGTKLTVL
On to B2, for which the binding entry in test [2] is reported as “binds”.
